{"source": "patent EP0365818A1", "about": "“Immunological detection of atrazine and atrazine derivatives” (CIBA-GEIGY AG, priority 1988, dated 1990)", "tested_on": "MAb 4009-85-3 (ECACC 8808/2503)", "assay": "recovery of hydroxyatrazine from spiked soil extracts by competitive ELISA", "parameters": "species or system Maus", "details": "extract diluted 1:40", "data": [{"compound": "CCNc1nc(O)nc(NC(C)C)n1", "note": "[OH-Atrazin, Hydroxyatrazin]", "values": [{"measurement": "Hydroxyatrazin Rückgewinnungsrate (%)", "setting": "soil Collombey (Schweiz), 1,4 % Humus, pH 7,4, 100 ppb added", "value": 107, "unit": "%"}, {"measurement": "Hydroxyatrazin Rückgewinnungsrate (%)", "setting": "soil Les Evouettes (Schweiz), 2,6 % Humus, pH 6,2, 100 ppb added", "value": 94, "unit": "%"}, {"measurement": "Hydroxyatrazin Rückgewinnungsrate (%)", "setting": "soil Risilon (Israel), 1,8 % Humus, pH 7,8, 20 ppb added", "value": 91, "unit": "%"}, {"measurement": "Hydroxyatrazin Rückgewinnungsrate (%)", "setting": "soil Risilon (Israel), 60 ppb added", "value": 92, "unit": "%"}, {"measurement": "Hydroxyatrazin Rückgewinnungsrate (%)", "setting": "soil Risilon (Israel), 200 ppb added", "value": 90, "unit": "%"}, {"measurement": "Hydroxyatrazin Rückgewinnungsrate (%)", "setting": "soil Risilon (Israel), 600 ppb added", "value": 93, "unit": "%"}, {"measurement": "Hydroxyatrazin Rückgewinnungsrate (%)", "setting": "soil Stein (Schweiz), 5 % Humus, pH 7,1, 100 ppb added", "value": 110, "unit": "%"}, {"measurement": "Hydroxyatrazin Rückgewinnungsrate (%)", "setting": "soil Vetroz (Schweiz), 9,3 % Humus, pH 7,3, 100 ppb added", "value": 97, "unit": "%"}]}]}
